Source: PubChem BioAssay AID720505 (Drosophila RNAi Screening Center, 2013)
The deposit covers about 20,000 reagents; below is a random part of those that have a named target and a result. Of all reagents, about 2,100 (10%) got an active call. 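Raw plate signals without normalisation; calls rest on control-based scores that were not deposited; replicate 2 separates called from uncalled poorly.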 Names joined by + are all predicted targets of the reagent. Not stated in the record: the amount of reagent, the time to read-out.

Aim: 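Fly regulators or components of the CRAC channel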 (primary screen)
Cells: Drosophila S2R+ cells
Reagent: long dsRNA against Drosophila genes
Challenge: thapsigargin (2 µM) in calcium-free buffer to empty internal stores, then 2 mM calcium added back
Detection: 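Fluo-4 signal in 384-well plates read on a FLIPR after thapsigargin (2 µM, calcium-free) store depletion and 2 mM calcium add-back; unnormalised mean endpoint per well; screen run twice, selected wells retested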
Direction: calcium signal and retest calcium signal: higher = more calcium entry after store depletion
Rule for the call: 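About 1500 genes called as lowering calcium entry, by varying amounts, judged against per-plate control wells with STIM1 as positive and Rho1 as negative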
Meaning of the calls: active = called as lowering calcium entry; inactive = not called

target gene	DRSC id	calcium signal, replicate 1	calcium signal, replicate 2	retest calcium signal, replicate 1	retest calcium signal, replicate 2	activity call
Nop60B	DRSC04627	162	80.3			inactive
etaTry	DRSC07613	135	214			inactive
Tep5Psi	DRSC02183	65.5	187			inactive
Tep5Psi	DRSC02184	182	79.9			inactive
Cipc	DRSC14898	84.2	89.9			inactive
Cipc	DRSC14900	260	149			inactive
Hel89B	DRSC16700	209	183	134	93.7	inactive
Hel89B	DRSC21575	169	95.2			inactive
Jhbp5	DRSC14240	144	146			inactive
pygo	DRSC14322	69.9	121			inactive
CG9962	DRSC00739	188	139			inactive
Karl	DRSC19883	197	141			inactive
Syt4	DRSC12606	112	106			inactive
Sec20	DRSC12295	114	128			inactive
CG42597	DRSC03681	89.8	5414			inactive
emc	DRSC08715	110	180			inactive
emc	DRSC23238	122	139			inactive
CG30411	DRSC04004	66.1	78.3			active
CG11380	DRSC18632	88.2	130			inactive
CG11380	DRSC23223	98.5	131			inactive
CG5177	DRSC02824	125	242			inactive
pyd	DRSC12712	6487	143			inactive
pyd	DRSC14387	92.6	97.5			inactive
pyd	DRSC14445	73.7	128			active
pyd	DRSC14509	94.9	169			inactive
pyd	DRSC16547	112	111			inactive
pyd	DRSC16548	84.8	178			inactive
pyd	DRSC17041	102	167			inactive
pyd	DRSC21523	156	114			inactive
pyd	DRSC23116	107	152			inactive
CG42568 + DnaJ-60	DRSC04207	97.1	115			inactive
CG42568 + DnaJ-60	DRSC04611	184	79.7			inactive
CG10602	DRSC02075	101	103			inactive
CG11698	DRSC14355	114	132			inactive
CG14573	DRSC11734	120	221			inactive
CG8089	DRSC07074	118	176			inactive
CG7607	DRSC10889	76.5	78.2			inactive
Arms	DRSC03856	133	10216	93.4	152	inactive
Arms	DRSC03857	99.4	8592			inactive
Arms	DRSC04052	165	110			inactive
Arms	DRSC04256	108	103			inactive
CG9503	DRSC20186	75.9	154			inactive
CG9503	DRSC21766	158	119			inactive
lectin-46Cb	DRSC06611	111	142			inactive
CG14453	DRSC11710	57.9	76.2	145	7096	active
CG14974	DRSC08433	101	80			inactive
CG9173	DRSC08635	104	155			inactive
pasha	DRSC15295	105	110			inactive
CG13337	DRSC06371	96.1	217			inactive
CG14757	DRSC06492	127	142			inactive
phr	DRSC07662	85.7	101			inactive
CG10680	DRSC02093	102	95			inactive
CG13531	DRSC04173	105	224			inactive
CG14111	DRSC10114	100	112			inactive
drongo	DRSC00814	167	222			inactive
CG7798	DRSC07047	107	148			inactive
Chd3	DRSC11114	106	124			inactive
Ucp4B + asRNA:CR43465	DRSC02665	173	117			inactive
CG31156	DRSC15753	147	170			inactive
CG31156	DRSC15755	118	88.1			inactive
Jarid2	DRSC10372	113	130			inactive
az2	DRSC07580	184	78.7			inactive
CG18540	DRSC06767	190	165			inactive
Hrb87F	DRSC16708	97.2	90.8			inactive
bdl	DRSC00271	135	247			inactive
CG11164	DRSC19392	56.9	121			active
nAChRalpha3	DRSC18800	255	111			inactive
CG2209	DRSC19843	133	114			inactive
CG7290	DRSC10800	79.4	91.7			inactive
CG15635	DRSC00470	62.5	125	112	105	active
CG15635	DRSC22873	114	157			inactive
CG15879	DRSC08487	65.1	111			inactive
rk	DRSC03602	111	166			inactive
CG33630	DRSC14546	73.5	93.3			inactive
CG3635	DRSC03729	104	79.6			inactive
CG3092	DRSC04336	162	73.4			inactive
Taf5	DRSC07562	202	172			inactive
FMRFaR	DRSC08555	103	97			inactive
CG3107	DRSC04888	120	112			inactive
CG5440	DRSC00685	208	205			inactive
otk2	DRSC07303	142	213			inactive
unc-45	DRSC15449	131	176			inactive
CG3349	DRSC10359	104	129			inactive
CG15594	DRSC12280	123	102			inactive
CG30046	DRSC06691	138	201			inactive
CG12347	DRSC14502	69	148			active
mRpL14	DRSC18597	77.8	106			inactive
f	DRSC19174	79.4	174			inactive
f	DRSC19516	86.8	112			inactive
f	DRSC20331	83.8	128			inactive
CG8774	DRSC16445	66	108			active
wbl	DRSC07718	110	93.6			inactive
CG11723	DRSC00324	88.6	98.6			inactive
CG7201	DRSC10786	98	74.2			inactive
Eglp1	DRSC04502	174	88			inactive
CG17764	DRSC18135	275	73.7			inactive
CG17764	DRSC23055	101	136			inactive
UQCR-6.4	DRSC06454	184	134			inactive
MESR3	DRSC02463	68.1	95			inactive
Jon65Aiii	DRSC10649	94.1	74.8			inactive
Def	DRSC07398	102	79.6			inactive
MstProx	DRSC12601	118	115			inactive
Scsalpha2	DRSC16003	149	153			inactive
Mlf	DRSC07472	100	86.2			inactive
CG16727	DRSC15139	197	184			inactive
BomBc1	DRSC06501	222	210			inactive

Reformatted: entries from further up.
| target gene | DRSC id | calcium signal, replicate 1 | calcium signal, replicate 2 | retest calcium signal, replicate 1 | retest calcium signal, replicate 2 | activity call |
| --- | --- | --- | --- | --- | --- | --- |
| CG10602 | DRSC02075 | 101 | 103 | – | – | inactive |
| CG11698 | DRSC14355 | 114 | 132 | – | – | inactive |
| CG14573 | DRSC11734 | 120 | 221 | – | – | inactive |
| CG8089 | DRSC07074 | 118 | 176 | – | – | inactive |
| CG7607 | DRSC10889 | 76.5 | 78.2 | – | – | inactive |
| Arms | DRSC03856 | 133 | 10216 | 93.4 | 152 | inactive |
| Arms | DRSC03857 | 99.4 | 8592 | – | – | inactive |
| Arms | DRSC04052 | 165 | 110 | – | – | inactive |
| Arms | DRSC04256 | 108 | 103 | – | – | inactive |
